PubChem BioAssay AID504467 (National Center for Advancing Translational Sciences (NCATS), 2011)
In all, about 330,000 compounds went through this assay and about 7,700 (2.3%) were called active. This list was built around the results that the source calls inconclusive (neither active nor inactive); the mix of calls is not that of the screen. The call rests on the fitted dose curve; in most records, active means well fitted inhibition curve with a large enough effect; inconclusive means small, poorly fitted or top-dose-only effect, or effect the other way; inactive means flat fitted curve, though single readings scatter. Potencies of inconclusive entries are doubtful fits and often do not repeat.

Assay: qHTS screen for small molecules that inhibit ELG1-dependent DNA repair in human embryonic kidney (HEK293T) cells expressing luciferase-tagged ELG1; further: nearly all actives have a fitted effect of over 55% in size
Details: HEK293T ELG1-luciferase reporter, luminescence, 16 h, DNA damage induced by 5-fluorouridine; activity change, negative = inhibition: at 46.1 µM (top of the series)
How it was run: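 Luminescence from the luciferase reporter, measured 30 min after ONE-Glo reagent at room temperature, was the read-out. Beforehand, 2,000 cells per well were exposed for 16 hr at 37 °C to 5-fluorouridine together with compound or vehicle.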
On the % scale 0 is the no-effect control and ±100 the full control effect; potency means the concentration at half of the fitted maximal effect.

Row | Compound | Potency | activity change, negative = inhibition
1 | Cn1cc(C(=O)c2ccc(Cl)cc2Cl)cc1C(=O)N/N=C(\N)COc1ccc(Cl)cc1Cl | active: 23.1 µM | –
2 | Cc1cc(OCC(=O)OCC(=O)NCC2CCCO2)ccc1Cl (stereo not drawn) | – | inactive: 7.13%
3 | C/C(=N/NC(=O)c1ccc(Br)o1)c1cccs1 | inconclusive: 9.2 µM [activator, partial curve] | –
4 | COc1ccc(C2=CC(=O)CC(c3ccc(OC)cc3)C2)cc1 (stereo not drawn) | – | inactive: 3.83%
5 | NS(=O)(=O)c1ccc(N2N=C(c3ccccc3)CC2c2cccc(F)c2)cc1 (stereo not drawn) | inconclusive: 23.1 µM [inhibitor, partial curve, poor fit] | –
6 | Cc1ccc(-c2c(C(=O)N/N=C/c3c[nH]c4ccccc34)nnn2-c2nonc2N)cc1 | inconclusive: 18.3 µM [inhibitor, single point] | –
7 | CC(=O)N1CCCc2cc(S(=O)(=O)N3CCCC(C(=O)Nc4ccccc4C)C3)ccc21 (stereo not drawn) | – | inactive: -0.892%
8 | CCN1C2=NCCCN2c2ccccc21 | – | inactive: -3.08%
9 | Cc1cc(S(=O)(=O)NC(C)C)ccc1OCC(=O)Nc1ccc2c(c1)OCCO2 | inconclusive: 20.6 µM [inhibitor, single point] | –
10 | O=C(CNc1ccccc1)Nc1ccc(F)cc1 | inconclusive: 23.1 µM [activator, partial curve] | –
11 | c1ccc2c(CCN3CCNC[C@H]3Cc3cccc4ccccc34)cccc2c1 | inconclusive: 13 µM [activator, partial curve, poor fit] | –
12 | CC1(C)Cc2c(C#N)c(N3CCOCC3)nc(-c3ccccc3)c2CO1 | inconclusive: 29.1 µM [inhibitor, single point] | –
13 | CCOc1cc(CO)cc(Br)c1OCC(N)=O | – | inactive: 0.99%
14 | CCOC(=O)C1=C(C)NC(C)=C(C(=O)OCC)C1C(=O)OCC(=O)NCc1ccccc1OC | active: 11.6 µM | –
15 | CC1(C)CC(=O)c2cnc(NCc3ccco3)nc2C1 | inconclusive: 11.6 µM [activator, partial curve, poor fit] | –
16 | CN1CCN(CC(=O)c2cc(C(C)(C)C)c(O)c(C(C)(C)C)c2)CC1 | – | inactive: -13.8%
17 | Cc1cccc(-c2c3c(=O)n(C)c(=O)n(C)c3cn2-c2ccccc2O)c1 | – | inactive: -25.7%
18 | CCCn1c2ccccc2c2nnc(SCC(=O)Nc3ncccn3)nc21 | inconclusive: 35.5 µM [inhibitor, single point] | –
19 | Cc1nn(Cc2ccccc2)c(C)c1NC(=O)c1cc(-c2cccs2)on1 | inconclusive: 29.1 µM [inhibitor, single point] | –
20 | COc1cccc(NC(=S)/C(=C(\[O-])c2cc(C)n(-c3ccccc3F)c2C)[n+]2ccc(N(C)C)cc2)c1 | inconclusive: 29.1 µM [inhibitor, single point] | –
21 | CC(C)NC(=S)NC(=O)c1ccc(Cl)cc1Cl | – | inactive: -0.428%
22 | COc1ccc(OCc2cc(=O)[nH]c3ccccc23)cc1 | – | inactive: -8.49%
23 | Cc1ccc(-c2onc3ccc(C(=O)O)cc23)cc1 | inconclusive: 0.58 µM [activator, partial curve] | –
24 | COc1cc(S(=O)(=O)N2CCOCC2)ccc1NC(=O)COC(=O)c1ccc(Cl)nc1 | – | inactive: 0%
25 | Cc1cc(C)c(S(=O)(=O)Nc2nnc(CC(C)C)s2)c(C)c1 | – | inactive: 9.18%

4 compounds already listed, arranged by heavy-atom count, smallest number first.
Row | Compound | Potency | activity change, negative = inhibition
8 | CCN1C2=NCCCN2c2ccccc21 | – | inactive: -3.08%
15 | CC1(C)CC(=O)c2cnc(NCc3ccco3)nc2C1 | inconclusive: 11.6 µM [activator, partial curve, poor fit] | –
25 | Cc1cc(C)c(S(=O)(=O)Nc2nnc(CC(C)C)s2)c(C)c1 | – | inactive: 9.18%
9 | Cc1cc(S(=O)(=O)NC(C)C)ccc1OCC(=O)Nc1ccc2c(c1)OCCO2 | inconclusive: 20.6 µM [inhibitor, single point] | –

Carrying on.

Row | Compound | Potency | activity change, negative = inhibition
26 | Cn1cc([C@@H]2C[C@H]3CN(C4CCCC4)C(=O)[C@]34CCCN24)c(-c2ccccc2)n1 | – | inactive: -12.7%
27 | CCN(CC)C(=S)Sc1c(-c2ccccc2)c2cc(Cl)ccc2[nH]c1=O | – | inactive: -9.93%
28 | O=C1CN(C(=O)/C=C/c2ccc(Cl)cc2Cl)CCN1 | inconclusive: 14.6 µM [activator, partial curve] | –
29 | CCCN(CC(=O)Nc1ccccc1C)C(=O)CCCOc1ccc(Br)cc1 | – | inactive: -15%
30 | CCn1c(CN2c3ccccc3Sc3ccccc32)n[nH]c1=S | – | inactive: -1.95%
31 | CN(CC(=O)Nc1ccccc1Cl)C(=O)CSc1nncn1C | inconclusive: 5.8 µM [activator, partial curve, poor fit] | –
32 | COc1ccc2cc(C(=O)C3CCCN(Cc4ccccn4)C3)ccc2c1 (stereo not drawn) | – | inactive: -12.5%
33 | O=C(/C=C/c1ccco1)Nc1cccc(-c2nc3ccccc3[nH]2)c1 | inconclusive: 13 µM [inhibitor, partial curve] | –
34 | O=C(/C=C/c1ccc(OCCCF)cc1)Nc1ccnc(-c2ccncc2)n1 | inconclusive: 18.3 µM [inhibitor, single point] | –
35 | Cn1cc(Cl)c(C(=O)OCC(=O)Nc2nc(-c3ccc(Br)cc3)cs2)n1 | inconclusive: 2.59 µM [activator, partial curve] | –
36 | O=C(Nc1ccc(NC(=O)c2ccco2)c(Cl)c1)c1ccccc1 | – | inactive: 4.08%
37 | O=C(Nc1ccc(NC(=O)C2CCCCC2)nc1)c1cccs1 | inconclusive: 14.6 µM [activator, partial curve] | –
38 | COc1ccccc1NC(=O)c1csc2c1CCCC2 | inconclusive: 7.31 µM [activator, partial curve] | –
39 | Cc1sc(N)nc1-c1cccs1 | inconclusive: 13 µM [activator, single point] | –
40 | O=C(Cc1ccc(-n2c(=O)c3ccccc3n(Cc3ccc(F)cc3)c2=O)cc1)NCC1CCCO1 (stereo not drawn) | active: 10.3 µM | –
41 | CCCc1[nH]nc2c1C(c1cccnc1)C(C#N)=C(N)O2 (stereo not drawn) | inconclusive: 20.6 µM [activator, single point] | –
42 | CCSc1nnc2ccc(-c3ccc(C)cc3)nn12 | inconclusive: 18.3 µM [activator, partial curve] | –
43 | Nc1nc(N)c2nc(-c3ccccc3)c(N)nc2n1 | inconclusive: 32.6 µM [activator, partial curve, poor fit] | –
44 | CC1(C)Cc2c(c(N3CCOCC3)nc3sc4c(NCCN5CCOCC5)nnnc4c23)CS1 | inconclusive: 11.6 µM [inhibitor, partial curve] | –
45 | COc1cc(/C=C2/SC(=S)N(C)C2=O)ccc1OC(=O)c1ccco1 | inconclusive: 7.31 µM [activator, partial curve] | –
46 | COc1cccc(NC(=O)c2oc3ccccc3c2NC(=O)c2ccc3c(c2)OCO3)c1 | inconclusive: 14.6 µM [inhibitor, partial curve, poor fit] | –
47 | O=C(Nc1ccc(N2CCN(C(=O)c3cccs3)CC2)c(Cl)c1)c1cccnc1 | active: 6.51 µM | –
48 | CC(C)C[C@H](NC(=O)c1nc[nH]c1C(=O)NCCCCCNC(=O)OC(C)(C)C)C(=O)OC(C)(C)C | inconclusive: 20.6 µM [inhibitor, single point] | –
49 | c1ccc2c(c1)nnn2Cc1nnc2sc(-c3ccncc3)nn12 | inconclusive: 14.6 µM [inhibitor, partial curve] | –
50 | Cc1ccnc(NC(=O)C2CC(=O)N(c3ccc4c(c3)OCCO4)C2)c1 (stereo not drawn) | inconclusive: 2.59 µM [activator, partial curve] | –

Row | Compound | Potency | activity change, negative = inhibition
51 | COc1ccccc1OC(=O)c1ccc(SC)cc1OC | inconclusive: 14.6 µM [activator, partial curve, poor fit] | –
52 | CC1CCN(S(=O)(=O)c2ccc3c(c2)C(=NO)c2cc(S(=O)(=O)N4CCC(C)CC4)ccc2-3)CC1 | active: 5.17 µM | –
53 | CCOc1ccccc1OC(C)C(=O)Nc1ccc(S(=O)(=O)N2CCCC2)cc1 (stereo not drawn) | – | inactive: -7.31%
54 | COc1ccc(O)c(CN2CCN(CCc3ccccc3)C(CCO)C2)c1 (stereo not drawn) | – | inactive: -12.8%
55 | Cc1[nH]c2ccccc2c1/C=N/Nc1ccc(F)cc1F | inconclusive: 23.1 µM [activator, partial curve] | –
56 | CN(C)N=Nc1ccc(S(N)(=O)=O)cc1 | – | inactive: 14.5%
57 | CCS(=O)(=O)N1CCC(c2nc(-c3ccc(C(F)(F)F)cc3)no2)CC1 | active: 6.31 µM | –
58 | Cc1cc(Oc2ccccc2)nc(N2CCOCC2)n1 | inconclusive: 25.9 µM [activator, single point] | –
59 | N/C(=N\S(=O)(=O)c1cccs1)c1ccccc1 | – | inactive: -1.1%
60 | COc1cccc(-n2cc(-c3ccc(F)cc3)[nH]c2=S)c1 | inconclusive: 2.91 µM [activator, partial curve] | –
61 | COc1ccc(-c2noc(CCCC(=O)N3CCN(c4cc(C)ccc4C)CC3)n2)cc1 | inconclusive: 8.2 µM [activator, partial curve] | –
62 | CCC(=O)C1CCCN(C(=O)c2ccc3nc(-c4cccc(OC)c4)oc3c2)C1 (stereo not drawn) | inconclusive: 2.59 µM [activator, full curve] | –
63 | COc1ccc(OC)c(S(=O)(=O)N/N=C\c2ccc3c(c2)OCO3)c1 | inconclusive: 20.6 µM [activator, single point] | –
64 | Cn1c2ccccc2c(=O)c2cc(NCCCN3CCOCC3)ccc21 | inconclusive: 4.61 µM [activator, full curve] | –
65 | C=CCNC(=O)c1onc(CCl)c1C(=O)OC | – | inactive: 3.3%
66 | COc1ccc(C(CNC(=O)Cc2ccccc2Cl)N2CCCCC2)cc1 (stereo not drawn) | – | inactive: 21.9%
67 | O=C(OCc1csc(-c2ccccc2)n1)c1cccs1 | inconclusive: 20.6 µM [activator, single point] | –
68 | CCCCN(C(=O)NC(=O)Nc1c(C)cc(C)cc1C)S(C)(=O)=O | inconclusive: 5.17 µM [inhibitor, partial curve] | –
69 | CC(C)OC(=O)c1cn(-c2ccccc2)nc1-c1ccco1 | – | inactive: -5.62%
70 | Cc1cc(=O)oc2cc(OCC(=O)N3c4ccccc4CC3C)ccc12 (stereo not drawn) | inconclusive: 3.26 µM [inhibitor, partial curve, poor fit] | –
71 | C[C@H](NC(=O)c1nc[nH]c1C(=O)N[C@@H](Cc1ccccc1)C(=O)OC(C)(C)C)C(=O)OCc1ccccc1 | – | inactive: 4.87%
72 | COc1ccc(-n2cnnc2SCC(=O)Nc2cccc(S(=O)(=O)N3CCCCC3)c2)cc1 | inconclusive: 16.4 µM [inhibitor, partial curve] | –
73 | Cc1ccc2c(c1)sc1ncc(NC(=O)c3ccc(F)cc3)c(=O)n12 | inconclusive: 6.51 µM [activator, single point] | –
